Laboratory results as given in paper PMC3530832.
No constants are given. Whether binding was seen depends on the method and setting. In cells and extracts the contact can be indirect. Some entries that bind do so weakly or less than the wild type.

Molecular target: heat shock cognate 70 kDa protein cpHSC70-1 (Arabidopsis) (UniProt Q9STW6)
Assay: split reporter; the two split YFP/BiFC constructs of cpHSC70-1 co-expressed with NSP:CFP and PDCB1:mCherry in leaf tissues of locally AbMV-infected N. benthamiana, 4 days post agro-infiltration, epi-fluorescence microscopy

B1: heat shock cognate 70 kDa protein cpHSC70-1 (protein, UniProt Q9STW6 93-718)
chain: AAMEGGKPTIVTNAEGQRTTPSVVAYTKSGDRLVGQIAKRQAVVNPENTFFSVKRFIGRKMNEVDEESKQVSYRVVRDENNNVKLECPAINKQFAAEEISAQVLRKLVDDASRFLNDKVTKAVITVPAYFNDSQRTATKDAGRIAGLEVLRIINEPTAASLAYGFDRKANETILVFDLGGGTFDVSVLEVGDGVFEVLSTSGDTHLGGDDFDKRVVDWLAAEFKKDEGIDLLKDKQALQRLTEAAEKAKIELSSLTQTNMSLPFITATADGPKHIETTLTRAKFEELCSDLLDRVRTPVENSLRDAKLSFKDIDEVILVGGSTRIPAVQELVRKVTGKEPNVTVNPDEVVALGAAVQAGVLAGDVSDIVLLDVTPLSIGLETLGGVMTKIIPRNTTLPTSKSEVFSTAADGQTSVEINVLQGEREFVRDNKSLGSFRLDGIPPAPRGVPQIEVKFDIDANGILSVSAVDKGTGKKQDITITGASTLPKDEVDQMVQEAERFAKDDKEKRDAIDTKNQADSVVYQTEKQLKELGEKIPGEVKEKVEAKLQELKDKIGSGSTQEIKDAMAALNQEVMQIGQSLYNQPGAGGPGAGPSPGGEGASSGDSSSSKGGDGDDVIDADFTDSQ
Q: How did the binding turn out when B1 was run?
A: Its binding is “binds”.
